Here are results for 54 sequences from PMC7819943, “Rice protein-binding microarrays: a tool to detect cis-acting elements near promoter regions in rice”.

Amino acid sequences for entries named in this document (tags omitted).
UniProt Q0JBA9, entry or part of it: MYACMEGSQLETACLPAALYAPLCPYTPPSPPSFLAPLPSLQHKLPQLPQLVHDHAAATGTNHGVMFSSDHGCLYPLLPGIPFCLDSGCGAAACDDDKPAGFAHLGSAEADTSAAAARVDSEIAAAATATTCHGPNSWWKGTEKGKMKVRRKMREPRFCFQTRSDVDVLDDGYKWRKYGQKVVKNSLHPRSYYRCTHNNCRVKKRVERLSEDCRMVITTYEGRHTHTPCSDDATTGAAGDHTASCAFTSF

The list shows a part of the results.

The assay concerns the target OsWRKY34 (Oryza sativa, UniProt Q0JBA9 1-250). Kind of assay: protein-binding microarray (RPBM); PBS, 2% BSA, 51.3 ng/ul salmon testes DNA, 50 uM zinc acetate, 200 nM TF, 25 C, 1 h; high values mean tight binding. As to conditions: protein: recombinant; tags: N-terminal polyhistidine and DsRed monomer fusion (pET32a); label: CyDye5-dUTP incorporated in the synthesized complementary strand; 3' TTTTT single-stranded linker to array surface; dsDNA, one strand shown. A digest of the protocol:
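A custom Agilent array was converted to double-stranded form by primer extension with Cy5-dUTP and blocked with 2% BSA. Protein at 200 nM in PBS with 2% BSA, salmon testes DNA and 50 µM zinc acetate was applied for 1 h at 25 °C, followed by washing. The proteins were polyhistidine–DsRed N-terminal fusions of transcription factors, expressed in E. coli BL21-CodonPlus and Ni–NTA-purified. The binding signal is per-feature fluorescence intensity (arbitrary units) from an Axon 4000B scanner.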
For the sequence “ATCGGGGTTGTTGTTTTTGTAGCTGCTTAAGCTTTTTATTCGGAGTCACCTAGTGCAG”, the binding signal was 14100 fluorescence intensity (a.u.).
In the case of “AATTTTGGCATGTATGTGAGGTTGCATCTTTACTTGTACACGGAGTCACCTAGTGCAG” it was 9560 fluorescence intensity (a.u.); in that of “TGTTGTTGTTGGGGTGTTCGCGGCCGATTTGACCCCGGGGCGGAGTCACCTAGTGCAG”, 10900 fluorescence intensity (a.u.).
In the case of “TCCATCTGGCGAGCAGAGCAGGGCAGGGGAGGGGATCCTGCGGAGTCACCTAGTGCAG” it was 11700 fluorescence intensity (a.u.); in that of “AGTGTTCTTTCTTTAGCTTCACATTTGTGATTTTCCTAGGCGGAGTCACCTAGTGCAG”, 8370 fluorescence intensity (a.u.).
The figure for “ACCCACTTTCGACTCCATGAATTTCATCACATTTGTTTTACGGAGTCACCTAGTGCAG” is 18600 fluorescence intensity (a.u.).
Turning to “GAGTCCTCATCGGGTCCGGGCGCGCGCCACACACAACTCCCGGAGTCACCTAGTGCAG”, the binding signal was 8480 fluorescence intensity (a.u.).
In the case of “CTGCTGCGAGGGTGGGTGTTGCTTGTACCGGGCGGGGATGCGGAGTCACCTAGTGCAG” it was 20300 fluorescence intensity (a.u.); in that of “GCCGCTCCTCGGCCACGCGGTGACCTATTGCTTGACTTTTCGGAGTCACCTAGTGCAG”, 9710 fluorescence intensity (a.u.).
In the case of “AAATCGAGCCGAGCCGACCACTCGTCCTTATTCGCTCGAGCGGAGTCACCTAGTGCAG” it was 8680 fluorescence intensity (a.u.).
Turning to “TTCGGATCTATATACTACCTGGTTAATTCCTATCTTCTGACGGAGTCACCTAGTGCAG”, the binding signal is 9680 fluorescence intensity (a.u.).
The figure for “TCCTCTTGCCTCCTCCGCTGAGGCAGCCAGTGCGTGCGCCCGGAGTCACCTAGTGCAG” is 8460 fluorescence intensity (a.u.).
In the case of “TATTTTCTTTATTTTAACATTGAGAAATTTTCGTTTTTTTCGGAGTCACCTAGTGCAG” it was 8680 fluorescence intensity (a.u.); in that of “GGGTATTTCTGTCCTTTTGTTTGTTTCACGAGAGAAAAAACGGAGTCACCTAGTGCAG”, 9990 fluorescence intensity (a.u.).
As for “AAAAAGAACTGAGTAGGGGTGGACATTTACAATAAAATAACGGAGTCACCTAGTGCAG”, the binding signal was 8140 fluorescence intensity (a.u.).
The figure for “GCCTTTTGCCTCTCTTTCTACTCTCTTTCTTGGCCGTCTCCGGAGTCACCTAGTGCAG” is 8470 fluorescence intensity (a.u.); for “CTTTATATGTGATTAAATATTTTTAATTTTTTCATAAATTCGGAGTCACCTAGTGCAG” it is 8390 fluorescence intensity (a.u.).
In the case of “TGTTTACTGTAGCATCACATTGTTAAATCATAGCGTAATTCGGAGTCACCTAGTGCAG” it was 8600 fluorescence intensity (a.u.); in that of “GCTGCTTTGTTTCTCGTCGCCGTGTGCCTGCGCGCTTGCTCGGAGTCACCTAGTGCAG”, 8060 fluorescence intensity (a.u.).
The figure for “GTTCATGTCACAGAAAAGTCAACCCACTTAGTTTAACGCCCGGAGTCACCTAGTGCAG” is 8680 fluorescence intensity (a.u.).
Consider “ATCGAGGTATTCAAAGTGAACTTATTTTCCATACGTATACCGGAGTCACCTAGTGCAG”, for which the binding signal is 8330 fluorescence intensity (a.u.).
The figure for “TCGCACACCACAACACACACCTGCCGGCCCCATCACCCCGCGGAGTCACCTAGTGCAG” is 8420 fluorescence intensity (a.u.); for “AATTATCTCAAATACTAATTGTTCGTCATGAAATAATAATCGGAGTCACCTAGTGCAG” it is 8670 fluorescence intensity (a.u.); for “GGTTTGTTCGTGTCTTTTGTGGTGATTGCATTTGATTGGGCGGAGTCACCTAGTGCAG” it is 9920 fluorescence intensity (a.u.).
The figure for “CCCAACTCTACCTTTTTATTTTATTTTGTGAGAGTTTACACGGAGTCACCTAGTGCAG” is 8410 fluorescence intensity (a.u.); for “ACACTCGCCGAGCAAGTTTATGTACCTTATTTTTATCGATCGGAGTCACCTAGTGCAG” it is 9110 fluorescence intensity (a.u.).
In the case of “AGCAAGACACCCAGTTGTTGACTTCTAATCAGTACTCTGCCGGAGTCACCTAGTGCAG” it was 8500 fluorescence intensity (a.u.); in that of “AAAACCTGAATCCTGCACTGTTTTTAAGTTCGTTTCTGAACGGAGTCACCTAGTGCAG”, 8600 fluorescence intensity (a.u.); in that of “AATGTTTGACGCCGTTGACTTTTTAGCACATGTTGACCGTCGGAGTCACCTAGTGCAG”, 42200 fluorescence intensity (a.u.).
For the sequence “TTTTCCCTCAAGAGAACGCGCCGTTATTTTTTTACGTCACCGGAGTCACCTAGTGCAG”, the binding signal is 8750 fluorescence intensity (a.u.).
Take “ATCACACGCTGCACCTCTCCCGCGCCCACCAGTCCACTCACGGAGTCACCTAGTGCAG”: the binding signal is 18500 fluorescence intensity (a.u.).
Regarding “TTGCTTACCGTGTTGTGTTGGTCTCATCGTCTGTCTCGCTCGGAGTCACCTAGTGCAG”, the binding signal was 9170 fluorescence intensity (a.u.).
“TCATATTATAAATTGTTTTGACTTTTTTCCTAATCAAACTCGGAGTCACCTAGTGCAG”: the binding signal was 10600 fluorescence intensity (a.u.).
Take “TATTAAACTGTCTTGTATGGACTCACTCGCTCACACCTTCCGGAGTCACCTAGTGCAG”: the binding signal is 9370 fluorescence intensity (a.u.).
In the case of “ACTTTTTCAGTTTTTGCGTGTGACATGGTTGCTATTGGCTCGGAGTCACCTAGTGCAG” it was 8560 fluorescence intensity (a.u.).
In the case of “CTATCGCCCATTCGCCCCTTCGATCTTTTATTTTTCCTTCCGGAGTCACCTAGTGCAG” it was 9080 fluorescence intensity (a.u.).
In the case of “ATACTTTTTGTGGCATGCCTGGACAATCTTTAAGGTTTCACGGAGTCACCTAGTGCAG” it was 8870 fluorescence intensity (a.u.); in that of “CTATATATCGAGACCGATCGTATCCAGGCGCACGACACTTCGGAGTCACCTAGTGCAG”, 8270 fluorescence intensity (a.u.); in that of “TTGCTTGGTTTCTGCCACTTCTCATGCAGTGACTTGTACTCGGAGTCACCTAGTGCAG”, 8820 fluorescence intensity (a.u.).
For “TTAAGCTTGAATCCTATTTTTCTTCCTTGTTTGTGTTTTGCGGAGTCACCTAGTGCAG”, the binding signal was 8850 fluorescence intensity (a.u.).
The figure for “GAGGGAGTAATAGCTTTCTCATGTGCGTCAGCTTAATTTTCGGAGTCACCTAGTGCAG” is 8270 fluorescence intensity (a.u.); for “GTTGGGTTGAGGTGTCCGATTTTTCCTCCTTCATTGGACGCGGAGTCACCTAGTGCAG” it is 8680 fluorescence intensity (a.u.); for “GCTTCACGGGCCCGACCTATGTGGCTTGGTTTTTCTTTACCGGAGTCACCTAGTGCAG” it is 10200 fluorescence intensity (a.u.).
The figure for “CGTCGCACCCAACCCACCAACCACCCGCCGCACGAAACCTCGGAGTCACCTAGTGCAG” is 9100 fluorescence intensity (a.u.).
In the case of “GCAGCAACAAGAATTGACTTTGTGGCCTTTGTCCACGAACCGGAGTCACCTAGTGCAG” it was 9580 fluorescence intensity (a.u.); in that of “TCCACCTCGCCGCCATTTGATCGAACACCTGATAGCCATGCGGAGTCACCTAGTGCAG”, 8680 fluorescence intensity (a.u.).
Regarding “CCGCCATCGCTACCCTCGGTCGTCGCTTGCCCCGACGACCCGGAGTCACCTAGTGCAG”, the binding signal is 8180 fluorescence intensity (a.u.).
For “CTCATCGTTCTTGTCCCCGTCCTGGTGCCAGCTGCTGCTCCGGAGTCACCTAGTGCAG”, the binding signal is 13600 fluorescence intensity (a.u.).
For “CTTAAGATCTAGTCTTTATACTCCATGCCAATCCTCGTGTCGGAGTCACCTAGTGCAG”, the binding signal is 10000 fluorescence intensity (a.u.).
The figure for “CATCCACTACCATTTCGCCGTCCACTTGTCATTCTTTTCACGGAGTCACCTAGTGCAG” is 10900 fluorescence intensity (a.u.); for “AGCTCATCACTTCTTCTTGCATGCATGCACTACCGTCGGCCGGAGTCACCTAGTGCAG” it is 10400 fluorescence intensity (a.u.).
For the sequence “CAGCTCGAGCTGTTTGCTTGTGGGGTTCTTGTTTTTCTTTCGGAGTCACCTAGTGCAG”, the binding signal was 8020 fluorescence intensity (a.u.).
In the case of “TTTCATCAAATTCCTGTGTTTTTCGTGCGGTTGAATCAAACGGAGTCACCTAGTGCAG” it was 8720 fluorescence intensity (a.u.); in that of “CGCTTTCACTTTGTTCTACTACTACTACCGAGCTTTTGAGCGGAGTCACCTAGTGCAG”, 8060 fluorescence intensity (a.u.).
